{"source": "the supplement of paper PMC8728848", "binders": {"B1": {"name": "RsaA-N-term (Caulobacter crescentus), P35828 (protein)", "chain": "MAYTTAQLVTAYTNANLGKAPDAATTLTLDAYATQTQTGGLSDAAALTNTLKLVNSTTAVAIQTYQFFTGVAPSAAGLDFLVDSTTNTNDLNDAYYSKFAQENRFINFSINLATGAGAGATAFAAAYTGVSYAQTVATAYDKIIGNAVATAAGVDVAAAVAFLSRQANIDYLTAFVRANTPFTAAADIDLAVKAALIGTILNAATVSGIGGYATATAAMINDLSDGALSTDNAAGVNLFTAYPSSGVSGSTLSLTTGTDTLTGTANNDTFVAGEVAGDGSGWSHPQFEKGG"}}, "test_in_all_cases": "glycan array binding signal (z-score within array); higher = stronger binding", "settings_in_all_cases": "glycan notation: IUPAC condensed, linker removed", "key": {"[1]": {"target": "Neu5Ac(a2-6)GlcNAc(b1-4)GlcNAc(b1-4)GlcNAc", "method_in_brief": "(§1)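 The binding signal is a Z-score computed within each array and averaged over linkers. Arrays of the same protein sequence at different concentrations or buffers were also averaged together. Data originate from 3228 arrays in the Consortium for Functional Glycomics database, kept only where the protein sequence was available.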"}, "Neu5Ac(a2-8)Neu5Ac": {"target": "Neu5Ac(a2-8)Neu5Ac", "method_in_brief": "as §1"}, "[2]": {"target": "Neu5Ac(a2-8)Neu5Ac(a2-3)Gal(b1-3)GalNAc(b1-4)[Neu5Ac(a2-3)]Gal(b1-4)Glc", "method_in_brief": "as §1"}, "[3]": {"target": "Neu5Ac(a2-8)Neu5Ac(a2-3)Gal(b1-3)GalNAc(b1-4)[Neu5Ac(a2-8)Neu5Ac(a2-3)]Gal(b1-4)Glc", "method_in_brief": "as §1"}, "[4]": {"target": "Neu5Ac(a2-8)Neu5Ac(a2-3)Gal(b1-4)Glc", "method_in_brief": "as §1"}, "[5]": {"target": "Neu5Ac(a2-8)Neu5Ac(a2-3)Gal(b1-4)GlcNAc", "method_in_brief": "as §1"}, "[6]": {"target": "Neu5Ac(a2-8)Neu5Ac(a2-3)[Gal(b1-3)GalNAc(b1-4)]Gal(b1-4)Glc", "method_in_brief": "as §1"}, "[7]": {"target": "Neu5Ac(a2-8)Neu5Ac(a2-3)[GalNAc(b1-4)]Gal(b1-4)Glc", "method_in_brief": "as §1"}, "[8]": {"target": "Neu5Ac(a2-8)Neu5Ac(a2-8)Neu5Ac", "method_in_brief": "as §1"}, "[9]": {"target": "Neu5Ac(a2-8)Neu5Ac(a2-8)Neu5Ac(a2-3)Gal(b1-4)Glc", "method_in_brief": "as §1"}, "[10]": {"target": "Neu5Ac(a2-8)Neu5Ac(a2-8)Neu5Ac(a2-3)[Gal(b1-3)GalNAc(b1-4)]Gal(b1-4)Glc", "method_in_brief": "as §1"}, "[11]": {"target": "Neu5Ac(a2-8)Neu5Ac(a2-8)Neu5Ac(a2-3)[GalNAc(b1-4)]Gal(b1-4)Glc", "method_in_brief": "as §1"}, "[12]": {"target": "Neu5Ac(a2-8)Neu5Ac(a2-8)Neu5Ac(a2-8)Neu5Ac(a2-3)[GalNAc(b1-4)]Gal(b1-4)Glc", "method_in_brief": "as §1"}, "[13]": {"target": "Neu5Ac(a2-8)Neu5Gc(a2-3)Gal(b1-4)GlcNAc", "method_in_brief": "as §1"}, "[14]": {"target": "Neu5Ac(b2-6)Gal(b1-4)GlcNAc", "method_in_brief": "as §1"}, "Neu5Ac(b2-6)GalNAc": {"target": "Neu5Ac(b2-6)GalNAc", "method_in_brief": "as §1"}, "[15]": {"target": "Neu5Ac9Ac(a2-3)Gal(b1-3)GlcNAc", "method_in_brief": "as §1"}, "[16]": {"target": "Neu5Ac9Ac(a2-3)Gal(b1-4)GlcNAc", "method_in_brief": "as §1"}, "[17]": {"target": "Neu5Ac9Ac(a2-6)Gal(b1-4)GlcNAc", "method_in_brief": "as §1"}, "[18]": {"target": "Neu5Gc(a2-3)Gal(b1-3)GlcNAc", "method_in_brief": "as §1"}, "[19]": {"target": "Neu5Gc(a2-3)Gal(b1-3)[Fuc(a1-4)]GlcNAc", "method_in_brief": "as §1"}, "Neu5Gc(a2-3)Gal(b1-4)Glc": {"target": "Neu5Gc(a2-3)Gal(b1-4)Glc", "method_in_brief": "as §1"}, "[20]": {"target": "Neu5Gc(a2-3)Gal(b1-4)GlcNAc", "method_in_brief": "as §1"}, "[21]": {"target": "Neu5Gc(a2-3)Gal(b1-4)GlcNAc(b1-3)Gal(b1-4)GlcNAc(b1-2)Man(a1-3)[Neu5Gc(a2-3)Gal(b1-4)GlcNAc(b1-3)Gal(b1-4)GlcNAc(b1-2)Man(a1-6)]Man(b1-4)GlcNAc(b1-4)GlcNAc", "method_in_brief": "as §1"}, "[22]": {"target": "Neu5Gc(a2-3)Gal(b1-4)[Fuc(a1-3)]GlcNAc", "method_in_brief": "as §1"}, "[23]": {"target": "Neu5Gc(a2-6)Gal(b1-4)GlcNAc", "method_in_brief": "as §1"}, "Neu5Gc(a2-6)GalNAc": {"target": "Neu5Gc(a2-6)GalNAc", "method_in_brief": "as §1"}, "[24]": {"target": "Neu5Gc(a2-8)Neu5Ac(a2-3)Gal(b1-4)GlcNAc", "method_in_brief": "as §1"}, "[25]": {"target": "Neu5Gc(a2-8)Neu5Gc(a2-3)Gal(b1-4)GlcNAc", "method_in_brief": "as §1"}, "[26]": {"target": "Neu5Gc(a2-8)Neu5Gc(a2-3)Gal(b1-4)GlcNAc(b1-3)Gal(b1-4)GlcNAc", "method_in_brief": "as §1"}, "[27]": {"target": "Neu5Gc(a2-8)Neu5Gc(a2-6)Gal(b1-4)GlcNAc", "method_in_brief": "as §1"}, "[28]": {"target": "Neu5Gc(b2-6)Gal(b1-4)GlcNAc", "method_in_brief": "as §1"}}, "note": "Some of the results follow."}
{"binder": "B1", "values": [{"measurement": "glycan array binding signal (z-score)", "setting": "[1]", "result": 1.03}, {"measurement": "glycan array binding signal (z-score)", "setting": "Neu5Ac(a2-8)Neu5Ac", "result": 0.164}, {"measurement": "glycan array binding signal (z-score)", "setting": "[2]", "result": -0.642}, {"measurement": "glycan array binding signal (z-score)", "setting": "[3]", "result": 0.122}, {"measurement": "glycan array binding signal (z-score)", "setting": "[4]", "result": -0.815}, {"measurement": "glycan array binding signal (z-score)", "setting": "[5]", "result": -0.177}, {"measurement": "glycan array binding signal (z-score)", "setting": "[6]", "result": -0.027}, {"measurement": "glycan array binding signal (z-score)", "setting": "[7]", "result": -0.001}, {"measurement": "glycan array binding signal (z-score)", "setting": "[8]", "result": -0.579}, {"measurement": "glycan array binding signal (z-score)", "setting": "[9]", "result": -0.265}, {"measurement": "glycan array binding signal (z-score)", "setting": "[10]", "result": -0.646}, {"measurement": "glycan array binding signal (z-score)", "setting": "[11]", "result": -0.2}, {"measurement": "glycan array binding signal (z-score)", "setting": "[12]", "result": 1.29}, {"measurement": "glycan array binding signal (z-score)", "setting": "[13]", "result": -0.855}, {"measurement": "glycan array binding signal (z-score)", "setting": "[14]", "result": 0.047}, {"measurement": "glycan array binding signal (z-score)", "setting": "Neu5Ac(b2-6)GalNAc", "result": -0.15}, {"measurement": "glycan array binding signal (z-score)", "setting": "[15]", "result": 1.66}, {"measurement": "glycan array binding signal (z-score)", "setting": "[16]", "result": -0.179}, {"measurement": "glycan array binding signal (z-score)", "setting": "[17]", "result": -0.765}, {"measurement": "glycan array binding signal (z-score)", "setting": "[18]", "result": -0.512}, {"measurement": "glycan array binding signal (z-score)", "setting": "[19]", "result": 0.633}, {"measurement": "glycan array binding signal (z-score)", "setting": "Neu5Gc(a2-3)Gal(b1-4)Glc", "result": -0.605}, {"measurement": "glycan array binding signal (z-score)", "setting": "[20]", "result": 0.428}, {"measurement": "glycan array binding signal (z-score)", "setting": "[21]", "result": 0.548}, {"measurement": "glycan array binding signal (z-score)", "setting": "[22]", "result": 0.371}, {"measurement": "glycan array binding signal (z-score)", "setting": "[23]", "result": 0.784}, {"measurement": "glycan array binding signal (z-score)", "setting": "Neu5Gc(a2-6)GalNAc", "result": 0.667}, {"measurement": "glycan array binding signal (z-score)", "setting": "[24]", "result": -1.31}, {"measurement": "glycan array binding signal (z-score)", "setting": "[25]", "result": 0.037}, {"measurement": "glycan array binding signal (z-score)", "setting": "[26]", "result": -0.282}, {"measurement": "glycan array binding signal (z-score)", "setting": "[27]", "result": -0.033}, {"measurement": "glycan array binding signal (z-score)", "setting": "[28]", "result": -0.368}]}
